Earlier results, collected in patent US9592197B2, “Dosage form containing diphenhydramine and another drug” (SOVEREIGN PHARMACEUTICALS, LLC, priority 2004, dated 2017).

- period over which a single dose provides a therapeutically effective plasma concentration: 4 to 6 h
SMILES: CN(C)CCOC(c1ccccc1)c1ccccc1 [diphenydramine, diphenhydramine]
